Measured values reported in paper PMC7383964 (Chemmedchem, 2020).
These are yes or no findings as the source states them, for the method shown. Binding seen in cells or lysates may run through a third protein. Some entries that bind do so weakly or less than the wild type.

Chains of the proteins cited; added tags and fusions are not shown.
UniProt P35372: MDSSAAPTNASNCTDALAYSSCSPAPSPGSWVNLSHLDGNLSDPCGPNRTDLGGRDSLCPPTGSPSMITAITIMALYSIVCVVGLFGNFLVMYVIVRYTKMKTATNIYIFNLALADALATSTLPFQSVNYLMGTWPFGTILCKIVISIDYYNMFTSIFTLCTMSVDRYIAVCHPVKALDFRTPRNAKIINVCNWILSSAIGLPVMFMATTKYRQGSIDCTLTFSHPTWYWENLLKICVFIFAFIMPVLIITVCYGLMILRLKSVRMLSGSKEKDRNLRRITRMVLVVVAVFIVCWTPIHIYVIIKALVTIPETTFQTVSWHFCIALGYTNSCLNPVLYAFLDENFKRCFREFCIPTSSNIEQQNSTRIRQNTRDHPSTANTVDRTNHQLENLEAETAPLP
UniProt P32121: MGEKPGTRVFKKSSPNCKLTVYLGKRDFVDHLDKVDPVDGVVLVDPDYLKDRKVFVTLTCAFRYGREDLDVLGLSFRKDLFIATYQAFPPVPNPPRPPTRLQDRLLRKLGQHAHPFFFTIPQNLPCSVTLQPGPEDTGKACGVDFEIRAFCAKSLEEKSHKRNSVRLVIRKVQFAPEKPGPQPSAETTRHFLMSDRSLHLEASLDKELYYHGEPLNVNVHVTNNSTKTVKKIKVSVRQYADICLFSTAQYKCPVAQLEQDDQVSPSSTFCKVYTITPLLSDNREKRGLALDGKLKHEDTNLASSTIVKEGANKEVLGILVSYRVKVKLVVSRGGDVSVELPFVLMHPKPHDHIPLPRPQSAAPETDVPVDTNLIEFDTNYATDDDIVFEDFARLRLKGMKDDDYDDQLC

Biological target: ProLink-tagged μ-OR-PK1 (μ-opioid receptor) (human) (UniProt P35372)
Assay: split reporter; PathHunter luminescence-based enzyme complementation in HEK-293 cells (EA-tagged β-arrestin-2 stable, ProLink-tagged μ-OR-PK1 and GRK2 1:1 transient); stimulation with the reference agonist DAMGO (1 μM in antagonist mode), 90 min at 37 °C; compounds 9 b and 16 b preincubated 30 min

## enzyme acceptor (EA)-tagged β-arrestin-2 fusion protein (from UniProt P32121 1-409)
  binding: binds
